# Data reported in PubChem BioAssay AID2685 (National Center for Advancing Translational Sciences (NCATS), 2010).
# The campaign covered roughly 320,000 compounds. About 2,100 (0.66%) were called active. The shares of active, inactive and inconclusive entries below differ from those in the screen. Calls follow the shape of the dose curve; as a rule, active = well fitted inhibition curve with a large enough effect in the signal ratio, with a control signal flat (not every such curve was filed as active); inconclusive = small, poorly fitted or top-dose-only effect, or effect the other way, or a change in a side signal; inactive = flat fitted curve, though single readings scatter; the % refers to the signal ratio. A potency beside an inconclusive call is a rough fit, not a confirmed value.
# Assay: qHTS Assay for Lipid Storage Modulators in Drosophila S3 Cells
# Details: BODIPY lipid droplet fluorescence, 18-24 h, cells fed with added oleic acid; lipid storage change, negative = inhibition: at 46.1 µM (top of the series) unless noted
# In short: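 Laser-scanning cytometry quantifies lipid droplet accumulation (500–530 nm total intensity; droplet/cell object ratio) in oleic acid-fed (400 uM added) Drosophila S3 cells treated with a concentration series. 20 uM Triacsin C defined 100% inhibition.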
# % is scaled to controls: 0 for no effect and ±100 for the full control effect; potency is read from the fitted curve at half-maximal effect.
SMILES,Potency,"lipid storage change, negative = inhibition"
Cc1ccc(Oc2ncnc(N)c2[N+](=O)[O-])cc1C,"inconclusive: 2.06 µM [falling, full curve]",
c1ccc(CN2CCN(c3nc(NCc4ccco4)c4ccccc4n3)CC2)cc1,,inconclusive: -42.9%
CCc1ccc(-c2cc(C)no2)cc1S(=O)(=O)N1CCN(c2cc(C)ccc2C)CC1,"inconclusive: 29.1 µM [falling, single point]",
CCOC(=O)N1CCN(C(=O)CCc2nc3sc4c(c3c(=O)[nH]2)CCCC4)CC1,,inconclusive: -13.5%
O=C(Nc1ncccn1)c1ccc(C(F)(F)F)cc1,,inconclusive: 1.99%
COc1cc2c(cc1OC)C1(Nc3c-2c(Cc2ccccc2)nn3-c2ccccc2)C(=O)Nc2ccccc21 (stereo not given),"inconclusive: 5.17 µM [activator, single point]",
Clc1ccc(-n2cccc2/C=N/n2cnnc2)cc1,,inconclusive: -8.37%
CCOc1ccc(N2CC(C(=O)NCCC3=CCCCC3)CC2=O)cc1 (stereo not given),"inconclusive: 13 µM [falling, partial curve]",
Cc1oc2c(C)c(O)ccc2c(=O)c1N1C(=O)c2ccccc2C1=O,,inconclusive: -11.9%
O=C(Nc1ccc(S(=O)(=O)N2CCOCC2)cc1)c1ccc(Cl)cc1,,inconclusive: -35.6%
COc1ccc(C(=O)Nn2c(CC(C)C)nc3cc(OC)c(OC)cc3c2=O)c(OC)c1,,inconclusive: -20%
COc1ccccc1NC(=O)CSc1n[nH]c(-c2ccccn2)n1,,inconclusive: 10.7%
CC(=O)NC(N1CCCCC1)C(F)(F)C(F)(F)C(F)(F)C(F)F (stereo not given),,inconclusive: -8.84%
O=[N+]([O-])C1=CC=C2C(=NC3(CCCCC3)N2O)C1=NCCO,,inactive
CC(=O)Oc1ccc(-c2cccc(C(=O)O)c2)cc1,"inconclusive: 5.17 µM [falling, full curve, poor fit]",
CCOC(=O)c1cc(-c2ccccc2)sc1NC(=O)CCN1C(=O)c2ccccc2C1=O,,inconclusive: 9.98%
COc1cc(OC)cc(C(=O)N[C@H](C(=O)OCC(=O)Nc2cccc(F)c2)C(C)C)c1,,inconclusive: 21.7%
CCCCNC(=O)c1cc2n(n1)C(C(F)(F)F)CC(c1ccccc1)N2 (stereo not given),"inconclusive: 23.1 µM [activator, partial curve, poor fit]",
CC(=O)c1ccc(NC(=O)COc2ccc3c(c2)OCO3)cc1,,inconclusive: 9.36%
COC(=O)C(NC(=O)C(C)NC(=O)OCc1ccccc1)C(C)C (stereo not given),,inconclusive: -9.05%
NC(=O)C1CCN(C(=O)COCc2cc(-c3ccc4c(c3)OCO4)on2)CC1,,inconclusive: 12.1%
CCOc1cc(S(=O)(=O)Nc2ccccc2CC)ccc1Cl,"inconclusive: 0.58 µM [falling, single point]",
Cc1cc(C)c(S(=O)(=O)N(C)CC(=O)NCCCn2ccnc2)c(C)c1,"inconclusive: 29.1 µM [activator, single point]",
COC(=O)c1ccccc1NC(=O)CSc1nnc(C(CO)NC(=O)c2ccccc2Cl)n1C (stereo not given),,inconclusive: -0.635%
CCC(C(=O)O)n1nc(-c2ccccc2)c2cc(Cl)ccc21 (stereo not given),,inconclusive: 23.8%

SMILES,Potency,"lipid storage change, negative = inhibition"
Cc1ccc(CCNC(=O)c2cccc(N3CCCC3=O)c2)cc1,"inconclusive: 29.1 µM [activator, single point]",
CC1=C(C(=O)Nc2cccnc2)C(c2ccncc2)n2nnnc2N1 (stereo not given),,inconclusive: 7.46%
COc1ccc(OC)c2c1sc(=NC(=O)C(C)(C)C)n2C,,inconclusive: 78.1%
Cc1cccc(N2CCN(C(=O)NC3CCCCC3)CC2)c1C,,inconclusive: -76.9%
CCC(C#CCN1CCCCC1)(CC)OCCC#N,,inconclusive: 42.8%
COc1cccc(NC(=O)CN(C)C(=O)c2c(C)nn(CC(C)C)c2Cl)c1,"inconclusive: 7.31 µM [activator, partial curve, poor fit]",
O=C(CCc1nnc(Cc2ccc(-c3ccccc3)cc2)o1)NCC1CC1,,inconclusive: 41.1%
CCOc1ccc(/C=C/C(=O)Oc2ccc(OC)cc2)cc1,"inconclusive: 1.64 µM [activator, partial curve, poor fit]",
COc1ccc(S(=O)(=O)Cc2ccc(C(=O)N3CCN(c4cccc(C)c4C)CC3)o2)cc1,,inconclusive: 19.5%
O=C(NCCCCC(NC(=O)C1CCCCC1)C(=O)O)c1ccccc1 (stereo not given),"inconclusive: 23.1 µM [cytotoxic, single point]",
O=C(O)c1ccc(/C=N/NC(=S)NCc2ccccc2)cc1,,inconclusive: -0.17%
CN(CC(=O)Nc1ccc(OC(F)(F)F)cc1)C(=O)c1ccc(N2CCCC2=O)cc1,,inconclusive: 2.9%
CC(C)C(=O)Nc1cccc(-c2cn3ccsc3n2)c1,"inconclusive: 3.66 µM [activator, single point]",
CC(C)c1ccc(S(=O)(=O)N2CCN(CC(O)CN3CCOCC3)CC2)cc1 (stereo not given),,inconclusive: 8.37%
CCOc1ccc(N(C)S(=O)(=O)c2ccc3[nH]cc(C(=O)NCC(OC)OC)c(=O)c3c2)cc1,,inconclusive: -13.9%
Cc1nn(-c2ccccc2)c(N)c1C(O)(C(F)(F)F)C(F)(F)F,,inconclusive: 3.8%
Clc1cccc(-c2nn3c(-c4ccncc4)nnc3s2)c1,,inconclusive: -30.9%
CCN(CC)CCNC(=O)CCc1n[nH]c(=O)c2ccccc12,,inactive
O=C(O)c1cc(S(=O)(=O)N2CCOCC2)c[nH]1,,inconclusive: -35.5%
Cc1csc(SCCn2c(Br)nc3c2c(=O)[nH]c(=O)n3C)n1,,inconclusive: 5.93%
O=C(CC12CC3CC(CC(Br)(C3)C1)C2)Nc1nncs1,"inconclusive: 6.51 µM [activator, single point]",
CCOc1ccc(N(C(=O)CNC(=O)c2ccco2)C(C(=O)NC2CCCC2)c2ccco2)cc1 (stereo not given),,inconclusive: 105%
O=C(Nc1sc2c(c1C(=O)O)CCCC2)c1cccs1,,inconclusive: 21.8%
Cc1cc(Oc2ccc(Cl)cc2)nc(SCC(=O)c2ccccc2)n1,"inconclusive: 20.6 µM [falling, partial curve, poor fit]",
c1ccc2c(SCc3cn4ccccc4n3)nncc2c1,,inconclusive: 2.37%

SMILES,Potency,"lipid storage change, negative = inhibition"
CC(OC(=O)CNC(=O)c1ccc(F)cc1)C(=O)Nc1ccc(S(=O)(=O)N2CCOCC2)cc1 (stereo not given),,inconclusive: 15.1%
CCN(CC(=O)Nc1c(F)cccc1F)C(=O)CSc1nnc(-c2ccco2)n1CC,,inconclusive: 36.5%
CC/C(=N\NC(=O)c1nnn(-c2nonc2N)c1-c1cccs1)c1ccccc1,,inconclusive: -7.66%
O=C(CCC(=O)NNC(=O)c1ccccc1[N+](=O)[O-])NCc1ccccc1,"inconclusive: 2.06 µM [falling, partial curve]",
CC(C)CN(C(=O)CC1CCCC1)c1c(N)n(Cc2ccccc2)c(=O)[nH]c1=O,,inconclusive: 8.22%
CCOC(=O)c1c(CN2CCN(C)CC2)n(C)c2cc(Br)c(OC)cc12,"inconclusive: 9.2 µM [activator, partial curve]",
CN(Cc1ccccc1)C(=O)c1ccc([N+](=O)[O-])o1,"inconclusive: 1.64 µM [falling, full curve]",
C=CCOc1c(Br)cc(CNCCCN2CCOCC2)cc1OC,"inconclusive: 16.4 µM [activator, partial curve, poor fit]",
COc1ccc(C(=O)NC(=S)Nc2cccnc2)cc1Cl,,inconclusive: 107%
Cc1ccc(C(OC(=O)c2ccco2)C(=O)NC2CCCC2)cc1 (stereo not given),"inconclusive: 0.146 µM [activator, full curve, poor fit]",
CC(C)C(NS(=O)(=O)c1cccc2nsnc12)C(=O)NCc1ccco1 (stereo not given),,inconclusive: -6.17%
CC1CCCC(C)N1C(=O)CN1C(=O)NC2(CCOc3ccccc32)C1=O (stereo not given),,inconclusive
Cc1ccccc1NC(=O)CNc1ccccc1N1CCCCC1,"inconclusive: 20.6 µM [activator, single point]",
COc1ccc(C)cc1N1CC(C(=O)Nc2ccccc2C(=O)NC2CC2)CC1=O (stereo not given),,inconclusive: 5.89%
COc1ccc(-n2c(=O)cc(N3CCN(c4ccccc4F)CC3)[nH]c2=O)cc1,"inconclusive: 0.517 µM [activator, full curve]",
c1ccc(-c2c[nH]c3[n+]2CCCCC3)cc1,,inconclusive: 1.39%
Cc1cc(C)nc(SCC(=O)N/N=C/c2ccc3c(c2)OCO3)n1,,inconclusive: 24.6%
Cc1c(Cl)cnc(NC(=O)COC(=O)c2cccc(S(=O)(=O)N3CCc4ccccc4C3)c2)c1Cl,,inconclusive: -3.94%
CC(C)N(Cc1nc(-c2ccc3c(c2)OCO3)no1)CC1CCC(=O)N1 (stereo not given),,inconclusive: 28.8%
CCOC(=O)[C@H]1[C@H]2COc3ccc(C)cc3[C@@H]2N2C(=O)c3cc(F)ccc3NC(=O)[C@@]12C,,inactive
OC(COC(c1ccccc1)c1ccccc1)CN1CCOCC1 (stereo not given),,inconclusive: 11.6%
CCCCc1ccc(-c2csc(/C(C#N)=C\c3ccco3)n2)cc1,,inconclusive: -51.1%
O=C(CSc1nnc(-c2c[nH]c3ccccc23)o1)N(Cc1ccccc1)c1ccc(F)cc1,"inconclusive: 29.1 µM [cytotoxic, single point]",
COc1ccc(OC)c(Nc2cc(C(=O)NCCCN3CCOCC3)c3ccccc3n2)c1,,inconclusive: -33.9%
CCN(CCO)c1nc(SC)nc2c1sc1nc(-c3ccco3)c3c(c12)CCC3,"inconclusive: 13 µM [falling, partial curve, poor fit]",
